Molecular target: T1, SNM1A (Homo sapiens, UniProt Q6PJP8)
T1 sequence (Q6PJP8 676-1040): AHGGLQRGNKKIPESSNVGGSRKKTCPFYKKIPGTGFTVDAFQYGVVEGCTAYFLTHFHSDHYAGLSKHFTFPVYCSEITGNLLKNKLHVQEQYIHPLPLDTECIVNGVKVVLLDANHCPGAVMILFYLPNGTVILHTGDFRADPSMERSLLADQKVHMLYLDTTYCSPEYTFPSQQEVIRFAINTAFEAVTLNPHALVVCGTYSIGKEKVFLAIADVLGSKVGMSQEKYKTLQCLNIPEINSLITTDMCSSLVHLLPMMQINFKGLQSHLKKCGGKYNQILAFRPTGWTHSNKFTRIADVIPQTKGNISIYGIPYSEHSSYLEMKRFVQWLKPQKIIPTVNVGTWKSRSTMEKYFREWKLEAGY
Details: read-out: IC50 of positive control in ELF screen; SNM1A 0.1 nM; as printed in main text
Description: In brief, the fluorescence-based nuclease assay utilises a chemically modified 20-nucleotide ssDNA substrate with a fluorescein isothiocyanate (FITC) derived 5′-group and an internal black-hole-quencher-1 (BHQ-1), located eight nucleotides distal to the fluorescein group. In the intact substrate the BHQ-1 suppresses fluorescence, however, exonucleolytic digestion of the substrate from the 5′ end by SNM1A uncouples the BHQ-1 and FITC moieties (see Fig. 1D). Spectra were measured every 140 seconds with an increase in fluorescence indicating enzymatic activity by SNM1A (concentration: 0.1 nM).

## CC(=O)OCC1=C(C(=O)O)N2C(=O)[C@@H](N)[C@H]2SC1 [7-ACA, 7-Aminocephalosporanic acid, reference compound]
  IC50: 12.2 µM
